Experimental data: PubChem BioAssay AID1224830 (NIAID, 2016)
The deposit covers about 18,000 reagents; below is a random part of them. About 2,900 of all reagents (16%) were called active. 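Calls are made per well; low scores hint the gene aids the LPS response, high scores that it dampens it.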 Repeated entries: four replicate wells of each siRNA pool. Reagent sequences are not shown.

Test: 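Genes whose knock-down alters the TNF-alpha reporter response to LPS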 (primary screen)
Cell system: human THP-1 monocytic leukaemia cells, TNF dual-luciferase reporter clone, PMA-differentiated to macrophage-like cells
Reagents: siRNA pool against human genes, 50 nM
Timing: LPS for 4 h, given about 3 days after siRNA transfection
Conditions: bacterial LPS (TLR4 ligand), 10 ng/ml
Detection: 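TNF firefly reporter luminescence divided by renilla, normalised to the plate median, then turned into a robust z-score for each replicate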
Reading the numbers: TNF reporter robust z-score: higher = stronger TNF reporter response to LPS
Hit rule: 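a well is active when its z-score exceeds 2.8 or falls below -1.5; control wells carry no call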

For ZXDC, the entry reads TNF reporter robust z-score -0.74; inactive.
Knock-down of ZXDC gave: TNF reporter robust z-score -1.01; inactive.
Against ZXDC, the entry reads TNF reporter robust z-score -1.3; inactive.
For ZXDC the deposit lists TNF reporter robust z-score -0.91; inactive.
After knock-down of RNF123 the results were TNF reporter robust z-score -0.68; inactive.
For RNF123, the entry reads TNF reporter robust z-score -0.8; inactive.
After knock-down of RNF123, the record shows TNF reporter robust z-score 1.4; inactive.
SUCLA2 gave TNF reporter robust z-score -0.41; inactive.
SUCLA2 gave TNF reporter robust z-score -0.09; inactive.
With knock-down of SUCLA2, the screen gave TNF reporter robust z-score -0.35; inactive.
SUCLA2 scored TNF reporter robust z-score -0.79; inactive.
Silencing of RNF34 came out at: TNF reporter robust z-score -0.28; inactive.
For RNF34 the deposit lists TNF reporter robust z-score 0.78; inactive.
RNF34 scored TNF reporter robust z-score 0.24; inactive.
Silencing of RNF34 gave: TNF reporter robust z-score -0.09; inactive.
ZNF354B scored TNF reporter robust z-score -1.16; inactive.
With knock-down of ZNF354B, the record shows TNF reporter robust z-score -1; inactive.
With knock-down of ZNF354B, the record shows TNF reporter robust z-score -1.24; inactive.
ZNF354B scored TNF reporter robust z-score -1.19; inactive.
RUSC1-AS1 gave TNF reporter robust z-score 0.49; inactive.
With knock-down of RUSC1-AS1 the results were TNF reporter robust z-score 0.38; inactive.
RUSC1-AS1 scored TNF reporter robust z-score 1.22; inactive.
Depletion of RUSC1-AS1 resulted in: TNF reporter robust z-score 1.12; inactive.
DDR2 gave TNF reporter robust z-score 0.81; inactive.
After knock-down of DDR2, the record shows TNF reporter robust z-score 4.77; active.
DDR2 scored TNF reporter robust z-score 0.26; inactive.
After knock-down of DDR2 the results were TNF reporter robust z-score 1.42; inactive.
With knock-down of DCAF5, the record shows TNF reporter robust z-score -0.13; inactive.
For DCAF5, the values are TNF reporter robust z-score 0.11; inactive.
With knock-down of DCAF5, the screen gave TNF reporter robust z-score -0.12; inactive.
DCAF5 gave TNF reporter robust z-score 0.67; inactive.
NDRG4 showed TNF reporter robust z-score 0.85; inactive.
After knock-down of NDRG4, the screen gave TNF reporter robust z-score -1.33; inactive.
With knock-down of NDRG4, the record shows TNF reporter robust z-score -0.07; inactive.
Against NDRG4, the values are TNF reporter robust z-score 0.09; inactive.
